Where a chain is given by its changes, count along the chain named. Results are given in words; binding and its absence hold for the method and conditions named. Some results given as binding are weak or reduced against the parent protein; the word gives no strength.
B1: rabbit anti-CAPRIN-1 monoclonal antibody (antibody, V domains shown)
VH: QSLEESGGRLVTPGTPLTLTCTASGFSLSSHSLGWVRQAPGKGLEWIGDIRSGGSAYYANWAKGRFTISRTSTTVALKMTSLTTEDTATYFCTRTNGPSDLTNRLDLWGQGTLVTVSS
VL: QVLTQTPSSVSAAVGGTVTINCQASQSLYNNENLAWFQQKPGQPPKRLIYGASTLASGVSSRFKGSGSGTQFTLTIGDVQCDDAAIYYCLGEFSCGSADCFAFGGGTEVVVK
B2: humanized antibody #2 (antibody, V domains shown)
VH: EVQLVESGGGLVQPGGSLRLSCAASGFSLSSHSLGWVRQAPGKGLEWIGDIRSGGSAYYANWAKGRFTISRDNSKNTLYLQMNSLRAEDTAVYYCTRTNGPSDLTNRLDLWGQGTLVTVSS
VL: EIVLTQSPSSLSASVGDRVTINCQASQSLYNNENLAWFQQKPGKVPKRLIYGASTLASGVSSRFSGSGSGTEFTLTISNLQPEDFATYYCLGEFSCGSADCFAFGGGTKVEIK
B3: humanized antibody #0 (antibody, V domains shown)
VH: B2 VH with Y94F
VL: B2 VL with E1A, V3Q, L4M, V45A, E72D, N79S, T87I
B4: humanized antibody #1 (antibody, V domains shown)
VH: B2 VH
VL: B2 VL with E1A, V3Q, L4M, V45A, E72D, N79S, T87I
B5: humanized antibody #3 (antibody, V domains shown)
VH: B2 VH
VL: B2 VL with I2Q, T87I
B6: humanized antibody #4 (antibody, V domains shown)
VH: B2 VH with Y94F
VL: B2 VL
B7: humanized antibody #5 (antibody, V domains shown)
VH: B2 VH with Y94F
VL: B2 VL with I2Q, T87I
B8: humanized antibody #9 (antibody, V domains shown)
VH: B2 VH with V2Q, Q3S
VL: B2 VL with E1D, N79S, P82C, T87I
B9: humanized antibody #7 (antibody, V domains shown)
VH: B2 VH
VL: QVLTQSPSSLSASVGDRVTINCQASQSLYNNENLAWFQQKPGKVPKRLIYGASTLASGVSSRFSGSGSGTEFTLTISSLQCEDFAIYYCLGEFSCGSADCFAFGGGTKVEIK
B10: humanized antibody #6 (antibody, V domains shown)
VH: B2 VH with Y94F
VL: B9 VL
B11: humanized antibody #10 (antibody, V domains shown)
VH: B2 VH with V2Q, Q3S
VL: B9 VL
B12: humanized antibody #8 (antibody, V domains shown)
VH: QSLVESGGGLVQPGGSLRLSCAASGFSLSSHSLGWVRQAPGKGLEWIGDIRSGGSAYYANWAKGRFTISRTSSKNTVYLQMNSLRAEDTAVYFCTRTNGPSDLTNRLDLWGQGTLVTVSS
VL: B9 VL
B13: human-rabbit chimeric anti-CAPRIN-1 antibody (antibody, V domains shown)
VH: B1 VH
VL: B1 VL

Legend:
[1] = biological target: T1, human CAPRIN-1 protein (human) (UniProt Q14444); experiment: ELISA, CAPRIN-1 protein coated at 1 ug/mL, hybridoma supernatant
T1 sequence (looked up): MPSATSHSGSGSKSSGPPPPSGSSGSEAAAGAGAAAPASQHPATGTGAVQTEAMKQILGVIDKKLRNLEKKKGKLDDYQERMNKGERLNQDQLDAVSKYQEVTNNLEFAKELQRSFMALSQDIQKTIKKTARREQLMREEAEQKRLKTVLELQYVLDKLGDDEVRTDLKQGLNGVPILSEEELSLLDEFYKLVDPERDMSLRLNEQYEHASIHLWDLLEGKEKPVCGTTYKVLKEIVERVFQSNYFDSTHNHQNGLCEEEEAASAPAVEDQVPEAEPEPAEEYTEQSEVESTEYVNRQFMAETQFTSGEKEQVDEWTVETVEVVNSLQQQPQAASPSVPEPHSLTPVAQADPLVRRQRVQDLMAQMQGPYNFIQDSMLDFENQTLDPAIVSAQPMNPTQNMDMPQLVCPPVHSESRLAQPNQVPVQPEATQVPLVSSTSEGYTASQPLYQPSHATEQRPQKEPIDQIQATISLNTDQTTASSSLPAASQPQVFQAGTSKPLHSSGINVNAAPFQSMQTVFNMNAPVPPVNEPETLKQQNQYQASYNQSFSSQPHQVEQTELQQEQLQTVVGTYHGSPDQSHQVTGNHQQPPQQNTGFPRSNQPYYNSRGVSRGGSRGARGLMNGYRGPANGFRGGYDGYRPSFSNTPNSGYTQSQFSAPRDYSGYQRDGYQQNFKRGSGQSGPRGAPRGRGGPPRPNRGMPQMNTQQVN

[2] = biological target: T2, CAPRIN-1 protein expressed on the membrane surface of human cancer cells (human) (UniProt Q14444); experiment: flow cytometry, 28 human cancer cell lines, hybridoma supernatant
T2 sequence (looked up): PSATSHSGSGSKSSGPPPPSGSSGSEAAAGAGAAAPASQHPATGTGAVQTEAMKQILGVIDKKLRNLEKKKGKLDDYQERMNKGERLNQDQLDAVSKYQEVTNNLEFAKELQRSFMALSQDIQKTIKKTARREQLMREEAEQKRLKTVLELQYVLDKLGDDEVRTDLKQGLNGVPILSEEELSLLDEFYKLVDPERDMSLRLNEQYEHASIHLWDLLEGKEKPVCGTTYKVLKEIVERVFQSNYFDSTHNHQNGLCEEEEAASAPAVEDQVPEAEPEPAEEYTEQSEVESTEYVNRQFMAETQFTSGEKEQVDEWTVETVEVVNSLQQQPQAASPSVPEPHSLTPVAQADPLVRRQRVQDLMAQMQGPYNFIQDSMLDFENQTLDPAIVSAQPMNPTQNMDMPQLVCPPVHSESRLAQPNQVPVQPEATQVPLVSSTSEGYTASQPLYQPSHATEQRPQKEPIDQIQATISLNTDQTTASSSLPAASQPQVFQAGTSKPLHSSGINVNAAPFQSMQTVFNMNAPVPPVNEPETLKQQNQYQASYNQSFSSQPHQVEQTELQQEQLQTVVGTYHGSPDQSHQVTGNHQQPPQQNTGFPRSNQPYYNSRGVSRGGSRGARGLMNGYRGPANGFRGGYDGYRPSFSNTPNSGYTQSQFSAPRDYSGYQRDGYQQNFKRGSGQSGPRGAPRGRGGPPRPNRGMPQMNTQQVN

[3] = biological target: T2, CAPRIN-1 protein expressed on the membrane surface of human cancer cells (human); experiment: flow cytometry, QG56 and BT-474 cells, hybridoma supernatant
[4] = biological target: T2, CAPRIN-1 protein expressed on the membrane surface of human cancer cells (human); experiment: flow cytometry, 28 human cancer cell lines, antibody 50 ug/mL
[5] = biological target: T1, human CAPRIN-1 protein (human); experiment: ELISA, CAPRIN-1 protein coated at 5 ug/mL, antibody 1 ug/mL

| binding [1] | binding [2] | binding [3] | binding [4] | binding [5] | Binder |
| --- | --- | --- | --- | --- | --- |
| binds | binds | binds |  |  | B1 |
|  |  |  | binds | binds | B2 |
|  |  |  | binds | binds | B3 |
|  |  |  | binds | binds | B4 |
|  |  |  | binds | binds | B5 |
|  |  |  | binds | binds | B6 |
|  |  |  | binds | binds | B7 |
|  |  |  | binds | binds | B8 |
|  |  |  | binds | binds | B9 |
|  |  |  | binds | binds | B10 |
|  |  |  | binds | binds | B11 |
|  |  |  | binds | binds | B12 |
|  |  |  | binds | binds | B13 |

From patent publication US20160297889A1 (TORAY INDUSTRIES, published 2016)
